The source of these data is the supplement of paper PMC11542785.

For the test, the system named is Drosophila melanogaster DPAGT1 (Alg7) RNAi eye model. The test is described as follows: eye size Z-score vs DMSO-treated DPAGT1 model flies; higher = larger eye (suppression of DPAGT1 phenotype). Particulars: 5 uM.

Structures can show the parent of a compound that is named as a salt. This is one part of the list. Many values rest on one well or one pass, so single values are uncertain.

In the case of `CCN(CC)CCOCCOC(=O)C1(c2ccccc2)CCCC1` [Carbetapentane citrate], the “eye size Z-score” value was 0.51. On to `CCN(CC)C(=O)Nc1ccc(OCC(O)CNC(C)(C)C)c(C(C)=O)c1` (stereo not drawn) [Celiprolol hydrochloride], for which the “eye size Z-score” value (female) turned out to be 0.1. For `CCCCC1C(=O)N(c2ccccc2)N(c2ccc(O)cc2)C1=O` (stereo not drawn) [Oxyphenbutazone], the “eye size Z-score” value is 0.3. Take `N[C@H]1CONC1=O` [(S,-) Cycloserine]: the “eye size Z-score” value is -0.39. `CC(=O)Nc1ccc(OC(=O)c2ccccc2O)cc1` [Acetaminosalol]: the “eye size Z-score” value was -0.83. Turning to `COc1cc2nc(N3CCN(C(=O)C4COc5ccccc5O4)CC3)nc(N)c2cc1OC` (stereo not drawn) [Doxazosin mesylate], the “eye size Z-score” value came to 0.81. On the same count and under the same terms, the result for `CCCOc1ccccc1-c1nc2[nH]nnc2c(=O)[nH]1` [Zaprinast] reads 0.28; that for `CCC[C@@H]1C[C@@H](C(=O)N[C@@H]([C@H]2O[C@H](SC)[C@H](OP(=O)(O)O)[C@@H](O)[C@H]2O)[C@H](C)Cl)N(C)C1` [Clindamycin Phosphate], 1.42; that for `CCCCCCNC(=O)n1cc(F)c(=O)[nH]c1=O` [Carmofur], 0.77. Take `Nc1nc(=O)n([C@@H]2CS[C@H](CO)O2)cc1F` [(-) Emtricitabine]: the “eye size Z-score” value was -0.51. In the case of `COc1ccc(Cl)cc1C(=O)NCCc1ccc(S(=O)(=O)NC(=O)NC2CCCCC2)cc1` [Glibenclamide], the “eye size Z-score” value was -0.28. Consider `CC(C(O)c1ccc(O)cc1)N1CCC(Cc2ccccc2)CC1` (stereo not drawn) [Ifenprodil tartrate], for which the “eye size Z-score” value is 0.28.

Consider `CC(C)[C@H](N)C(=O)OCCOCn1cnc2c(=O)nc(N)[nH]c21` [Valacyclovir hydrochloride], for which the “eye size Z-score” value came out at 1.72.

On to `CN1CCN2c3ncccc3Cc3ccccc3C2C1` (stereo not drawn) [Mirtazapine], for which the “eye size Z-score” value was 0.67. The same measure, in the same setting: the value for `COC(=O)N/N=C/c1c[n+]([O-])c2ccccc2[n+]1[O-]` [Carbadox] was 0.99; that for `CN(C(=O)CN(CCO)CC(=O)N(C)C(C)(C)Cc1ccccc1)C(C)(C)Cc1ccccc1` [Oxethazaine] was 0.76; that for `Cc1cc(C)nc(NS(=O)(=O)c2ccc(N)cc2)n1` [Sulfamethazine sodium salt] was 0.78.

With `CC1(C)O[C@@H]2C[C@H]3[C@@H]4C[C@H](F)C5=CC(=O)C=C[C@]5(C)[C@@]4(F)[C@@H](O)C[C@]3(C)[C@]2(C(=O)CO)O1` [Fluocinolone acetonide], the “eye size Z-score” value is -0.99. Turning to `COc1cc(NS(=O)(=O)c2ccc(N)cc2)ncn1` [Sulfamonomethoxine], the “eye size Z-score” value was found to be 0.16. Take `C[C@]12CC[C@@H]3c4ccc(O)cc4C[C@@H](CCCCCCCCC[S+]([O-])CCCC(F)(F)C(F)(F)F)[C@H]3[C@@H]1CC[C@@H]2O` (stereo partly drawn) [Fulvestrant]: the “eye size Z-score” value was determined as 0.53. Consider `O=C(NCCCN1CCOCC1)c1ccc(Cl)cc1` [Eprobemide], for which the “eye size Z-score” value is 0.51.

Take `CO/N=C(\C(=O)N[C@@H]1C(=O)N2C(C(=O)O)=C(COC(C)=O)CS[C@H]12)c1csc(N)n1` [Cefotaxime sodium salt]: the “eye size Z-score” value is -0.72. For `C/C(=C1\CCOC(=O)S1)N(C=O)Cc1cnc(C)nc1N` [Cycotiamine], the “eye size Z-score” value was 1.2. Regarding `CCCCOc1cc(C(=O)OCCN(CC)CC)ccc1N` [Benoxinate hydrochloride], the “eye size Z-score” value was -0.44. The same measure, in the same setting: the value for `Clc1ccc2nsnc2c1NC1=NCCN1` [Tizanidine hydrochloride] was -0.1; that for `CC(C)Oc1ccc2c(=O)c(-c3ccccc3)coc2c1` [Ipriflavone] was 0.23. As for `Cc1cc2cc3c(C)cc(=O)oc3c(C)c2o1` [Trioxsalen], the “eye size Z-score” value is -0.15. Still for that read-out and setting: the result for `CC(=O)Nc1nnc(S(N)(=O)=O)s1` [Acetazolamide] reads 0.78.

On to `CNCC(O)c1ccc(O)c(O)c1` (stereo not drawn) [Racepinephrine hydrochloride], for which the “eye size Z-score” value was 0.15. For `CCOC1O[C@H]([C@@H](COCc2ccccc2)OCc2ccccc2)[C@H](OCc2ccccc2)[C@H]1O` (stereo partly drawn) [Tribenoside], the “eye size Z-score” value (female) was determined as 1.18. Consider `CC(=O)Nc1c(I)c(C(=O)N[C@H]2C(O)O[C@H](CO)[C@@H](O)[C@@H]2O)c(I)c(N(C)C(C)=O)c1I` (stereo partly drawn) [Metrizamide], for which the “eye size Z-score” value was -0.36. Regarding `CCN(CC)CCNC(=O)c1ccc(N)cc1` [Procainamide hydrochloride], the “eye size Z-score” value was -0.03. On to `CCCCCCOc1ccccc1C(N)=O` [Exalamide], for which the “eye size Z-score” value amounted to 0.25.

Regarding `C[C@@H]1CCC[C@H](C)N1NC(=O)c1ccc(Cl)c(S(N)(=O)=O)c1` [Clopamide], the “eye size Z-score” value was -0.37. On the same count and under the same terms, the value for `CC[C@H]1OC(=O)[C@H](C)[C@@H](O[C@H]2C[C@@](C)(OC)[C@@H](O)[C@H](C)O2)[C@H](C)[C@@H](O[C@@H]2O[C@H](C)C[C@H](N(C)C)[C@H]2O)[C@](C)(O)C[C@@H](C)CN(C)[C@H](C)[C@@H](O)[C@]1(C)O` [Azithromycin] was 0.37; that for `CN[C@H]1CC[C@@H](c2ccc(Cl)c(Cl)c2)c2ccccc21` [Sertraline] was 1.06.

Take `CC(CNC1CCCCC1)OC(=O)c1ccccc1` (stereo not drawn) [Hexylcaine hydrochloride]: the “eye size Z-score” value is 1.06. Consider `Nc1ccc(S(=O)(=O)Nc2nccs2)cc1` [Sulfathiazole], for which the “eye size Z-score” value turned out to be 0.12. Consider `Cc1ccc(-c2cc(C(F)(F)F)nn2-c2ccc(S(N)(=O)=O)cc2)cc1` [Celecoxib], for which the “eye size Z-score” value was -0.03.

`CC12CC3CC(C)(C1)CC(N)(C3)C2` [Memantine hydrochloride]: the “eye size Z-score” value was determined as 0.83. On to `C#C[C@]1(O)CC[C@H]2[C@@H]3CCC4=Cc5oncc5C[C@]4(C)[C@H]3CC[C@@]21C` [Danazol], for which the “eye size Z-score” value was -0.65.

Take `O=C(Nc1ccc([N+](=O)[O-])cc1Cl)c1cc(Cl)ccc1O` [Niclosamide]: the “eye size Z-score” value amounted to 0.91. Turning to `CCOc1ccc(Cc2nccc3cc(OCC)c(OCC)cc23)cc1OCC` [Ethaverine hydrochloride], the “eye size Z-score” value was -0.44. The same measure, in the same setting: the value for `CCC[C@@H]1C[C@@H](C(=O)N[C@@H]([C@H]2O[C@H](SC)[C@H](O)[C@@H](O)[C@H]2O)[C@@H](C)O)N(C)C1` [Lincomycin hydrochloride] was -0.45; that for `CN1CCCN=C1/C=C/c1cccs1` [Pyrantel tartrate] was -0.37. In the case of `CCN(CC)CCN[C@@H](C(=O)OCCC(C)C)c1ccccc1` [Camylofine chlorhydrate], the “eye size Z-score” value was 0.56. With `NNC(=O)c1ccncc1` [Isoniazid], the “eye size Z-score” value worked out at 0.1. As for `CC1(C)O[C@@H]2C[C@H]3[C@@H]4C[C@H](F)C5=CC(=O)CC[C@]5(C)[C@H]4[C@@H](O)C[C@]3(C)[C@]2(C(=O)CO)O1` [Flurandrenolide], the “eye size Z-score” value is 0.82.
